Results deposited as PubChem BioAssay AID493246 (Drosophila RNAi Screening Center, 2011)
Aim: 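Genome-wide search for dsRNAs that reduce cell number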 (primary screen). System: Drosophila Kc and S2R+ cells. Reagents: long dsRNA against Drosophila genes. Measurement: 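Cell number per well after knock-down, printed as raw plate values; calls were based on per-plate z-scores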. Direction: Kc cell number and S2R+ cell number: higher = more cells remaining. Rule for the call: 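Active when the per-plate z-score of cell number is 3 or more in the direction of fewer cells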.
The deposit covers about 21,000 reagents; below is a random part of those with a known target gene and a result. Of all reagents, 429 (2%) are marked active. 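Values are raw and not normalised between plates; calls rest on per-plate z-scores that were not deposited.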 Names joined by + are all predicted targets of the reagent. The record does not give: the amount of reagent, the time to read-out.

| Target gene | amplicon | Kc cell number, rep 1 | Kc cell number, rep 2 | S2R+ cell number, rep 1 | S2R+ cell number, rep 2 | outcome |
| --- | --- | --- | --- | --- | --- | --- |
| CG7778 | DRSC03067 | 1.41e6 | 1.40e6 | 7.37e5 | 9.85e5 | inactive |
| CG46385 | DRSC06425 | 5.93e5 | 7.96e5 | 3.78e5 | 4.59e5 | active |
| CG46385 | DRSC06557 | 1.67e6 | 1.65e6 | 1.39e6 | 1.61e6 | inactive |
| CG13362 | DRSC17897 | 1.56e6 | 1.59e6 | 9.96e5 | 1.08e6 | inactive |
| nej (nejire) | DRSC18006 | 1.42e6 | 1.40e6 | 8.20e5 | 8.46e5 | inactive |
| nej (nejire) | DRSC18801 | 3.24e5 | – | 5.31e5 | – | active |
| CG4849 | DRSC15662 | 4.62e5 | – | 6.17e5 | – | inactive |
| CG8229 + CG33199 | DRSC05134 | 1.45e6 | 1.45e6 | 9.22e5 | 9.78e5 | inactive |
| CG17574 | DRSC06681 | 1.29e6 | 1.57e6 | 1.07e6 | 1.19e6 | inactive |
| Myo10A (Myosin 10A) | DRSC19834 | 1.82e6 | 1.68e6 | 1.11e6 | 1.24e6 | inactive |
| Myo10A (Myosin 10A) | DRSC19837 | 1.48e6 | 1.46e6 | 1.03e6 | 1.12e6 | inactive |
| CG10621 | DRSC02078 | 1.51e6 | 1.65e6 | 1.20e6 | 2.79e5 | inactive |
| CG34230 | DRSC05317 | 1.52e6 | 1.52e6 | 1.03e6 | 1.25e6 | inactive |
| CG1632 | DRSC17558 | 1.15e6 | 1.31e6 | 1.07e6 | 1.12e6 | inactive |
| CG1632 | DRSC18110 | 1.52e6 | 1.55e6 | 1.07e6 | 1.22e6 | inactive |
| FoxL1 (Forkhead box L1) | DRSC08717 | 1.50e6 | 1.34e6 | 1.15e6 | 1.37e6 | inactive |
| mRpL13 (mitochondrial ribosomal protein L13) | DRSC02076 | 1.41e6 | 1.59e6 | 1.13e6 | 3.06e5 | inactive |
| CG15879 | DRSC08487 | 1.49e6 | 1.34e6 | 1.01e6 | 1.29e6 | inactive |
| CG8620 | DRSC11020 | 1.59e6 | 1.45e6 | 1.13e6 | 1.20e6 | inactive |
| CG11342 | DRSC08175 | 1.68e6 | 1.55e6 | 1.10e6 | 1.19e6 | inactive |
| CG9522 | DRSC20197 | 1.52e6 | 1.51e6 | 1.05e6 | 1.14e6 | inactive |
| TwdlG (TweedleG) | DRSC12229 | 1.40e6 | 1.80e6 | 1.25e6 | 1.36e6 | inactive |
| Dad1 (Defender against apoptotic cell death 1) | DRSC02263 | 1.52e6 | 1.64e6 | 1.28e6 | 1.41e6 | inactive |
| lsn (larsen) | DRSC16081 | 1.35e6 | 1.32e6 | 1.03e6 | 1.09e6 | inactive |

2 entries from above, set out differently.
CG10621 [DRSC02078] | Kc cell number, rep 1: 1.51e6; Kc cell number, rep 2: 1.65e6; S2R+ cell number, rep 1: 1.20e6; S2R+ cell number, rep 2: 2.79e5; outcome: inactive
CG34230 [DRSC05317] | Kc cell number, rep 1: 1.52e6; Kc cell number, rep 2: 1.52e6; S2R+ cell number, rep 1: 1.03e6; S2R+ cell number, rep 2: 1.25e6; outcome: inactive
